# Experimental data reported in the supplement of paper PMC8728848.
# The list shows a part of the results.
# Experiments:
# Test in all cases: glycan array binding signal (z-score within array); higher = stronger binding
# Conditions in all cases: glycan notation: IUPAC condensed, linker removed
# [1] = target: Fuc(a1-2)[Gal(a1-3)]Gal(b1-4)GlcNAc(b1-2)Man(a1-3)[Fuc(a1-2)[Gal(a1-3)]Gal(b1-4)GlcNAc(b1-2)Man(a1-6)]Man(b1-4)GlcNAc(b1-4)GlcNAc
# Method in brief: (§1)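 The binding signal is a Z-score computed within each array. Data were drawn from 3228 arrays in the Consortium for Functional Glycomics database, restricted to those with a known protein sequence. Scores were averaged over arrays of the same protein sequence at different concentrations or buffers, and over linkers, and negative values can be taken as non-binding.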
# [2] = target: Fuc(a1-2)[Gal(a1-3)]Gal(b1-4)GlcNAc(b1-2)Man(a1-3)[Fuc(a1-2)[Gal(a1-3)]Gal(b1-4)GlcNAc(b1-2)Man(a1-6)]Man(b1-4)GlcNAc(b1-4)[Fuc(a1-6)]GlcNAc
# Method in brief: as §1
# [3] = target: Fuc(a1-2)[Gal(a1-3)]Gal(b1-4)GlcNAc(b1-3)GalNAc
# Method in brief: as §1
# [4] = target: Fuc(a1-2)[Gal(a1-3)]Gal(b1-4)GlcNAc(b1-3)[Fuc(a1-2)[Gal(a1-3)]Gal(b1-4)GlcNAc(b1-6)]GalNAc
# Method in brief: as §1
# [5] = target: Fuc(a1-2)[Gal(a1-3)]Gal(b1-4)GlcNAc(b1-6)GalNAc
# Method in brief: as §1
# [6] = target: Fuc(a1-2)[Gal(a1-3)]Gal(b1-4)[Fuc(a1-3)]Glc
# Method in brief: as §1
# [7] = target: Fuc(a1-2)[Gal(a1-3)]Gal(b1-4)[Fuc(a1-3)]GlcNAc
# Method in brief: as §1
# [8] = target: Fuc(a1-2)[Gal(a1-3)]Gal(b1-4)[Fuc(a1-3)]GlcNAc(b1-3)GalNAc
# Method in brief: as §1
# [9] = target: Fuc(a1-2)[Gal(a1-4)]Gal(b1-4)GlcNAc
# Method in brief: as §1
# [10] = target: Fuc(a1-2)[GalNAc(a1-3)]Gal
# Method in brief: as §1
# [11] = target: Fuc(a1-2)[GalNAc(a1-3)]Gal(b1-3)GalNAc(a1-3)[Fuc(a1-2)]Gal(b1-4)GlcNAc
# Method in brief: as §1
# [12] = target: Fuc(a1-2)[GalNAc(a1-3)]Gal(b1-3)GalNAc(b1-3)Gal(a1-4)Gal(b1-4)Glc
# Method in brief: as §1
# [13] = target: Fuc(a1-2)[GalNAc(a1-3)]Gal(b1-3)GlcNAc
# Method in brief: as §1
# [14] = target: Fuc(a1-2)[GalNAc(a1-3)]Gal(b1-3)GlcNAc(b1-2)Man(a1-3)[Fuc(a1-2)[GalNAc(a1-3)]Gal(b1-3)GlcNAc(b1-2)Man(a1-6)]Man(b1-4)GlcNAc(b1-4)GlcNAc
# Method in brief: as §1
# [15] = target: Fuc(a1-2)[GalNAc(a1-3)]Gal(b1-3)GlcNAc(b1-2)Man(a1-3)[Fuc(a1-2)[GalNAc(a1-3)]Gal(b1-3)GlcNAc(b1-2)Man(a1-6)]Man(b1-4)GlcNAc(b1-4)[Fuc(a1-6)]GlcNAc
# Method in brief: as §1
# [16] = target: Fuc(a1-2)[GalNAc(a1-3)]Gal(b1-3)GlcNAc(b1-3)GalNAc
# Method in brief: as §1
# [17] = target: Fuc(a1-2)[GalNAc(a1-3)]Gal(b1-3)GlcNAc(b1-6)GalNAc
# Method in brief: as §1
# [18] = target: Fuc(a1-2)[GalNAc(a1-3)]Gal(b1-4)Glc
# Method in brief: as §1
# [19] = target: Fuc(a1-2)[GalNAc(a1-3)]Gal(b1-4)GlcNAc
# Method in brief: as §1
# [20] = target: Fuc(a1-2)[GalNAc(a1-3)]Gal(b1-4)GlcNAc(b1-2)Man
# Method in brief: as §1
# [21] = target: Fuc(a1-2)[GalNAc(a1-3)]Gal(b1-4)GlcNAc(b1-2)Man(a1-3)[Fuc(a1-2)[GalNAc(a1-3)]Gal(b1-4)GlcNAc(b1-2)Man(a1-6)]Man(b1-4)GlcNAc(b1-4)GlcNAc
# Method in brief: as §1
# [22] = target: Fuc(a1-2)[GalNAc(a1-3)]Gal(b1-4)GlcNAc(b1-2)Man(a1-3)[Fuc(a1-2)[GalNAc(a1-3)]Gal(b1-4)GlcNAc(b1-2)Man(a1-6)]Man(b1-4)GlcNAc(b1-4)[Fuc(a1-6)]GlcNAc
# Method in brief: as §1
# [23] = target: Fuc(a1-2)[GalNAc(a1-3)]Gal(b1-4)GlcNAc(b1-3)Gal(b1-4)GlcNAc
# Method in brief: as §1
# [24] = target: Fuc(a1-2)[GalNAc(a1-3)]Gal(b1-4)GlcNAc(b1-3)Gal(b1-4)GlcNAc(b1-3)Gal(b1-4)GlcNAc
# Method in brief: as §1
# [25] = target: Fuc(a1-2)[GalNAc(a1-3)]Gal(b1-4)GlcNAc(b1-3)GalNAc
# Method in brief: as §1
# [26] = target: Fuc(a1-2)[GalNAc(a1-3)]Gal(b1-4)GlcNAc(b1-3)[Fuc(a1-2)[GalNAc(a1-3)]Gal(b1-4)GlcNAc(b1-6)]GalNAc
# Method in brief: as §1
# [27] = target: Fuc(a1-2)[GalNAc(a1-3)]Gal(b1-4)GlcNAc(b1-6)GalNAc
# Method in brief: as §1
# [28] = target: Fuc(a1-2)[GalNAc(a1-3)]Gal(b1-4)[Fuc(a1-3)]GlcNAc
# Method in brief: as §1
# [29] = target: Fuc(a1-2)[GalNAc(a1-3)]Gal(b1-4)[Fuc(a1-3)]GlcNAc(b1-3)GalNAc
# Method in brief: as §1
# [30] = target: Fuc(a1-2)[GalNAc(a1-4)]Gal(b1-4)GlcNAc
# Method in brief: as §1
# [31] = target: Fuc(a1-2)[GalNAc(b1-3)]Gal
# Method in brief: as §1
# Fuc(a1-3)GlcNAc = target: Fuc(a1-3)GlcNAc
# Method in brief: as §1
# [32] = target: Fuc(a1-3)[Gal(b1-4)]Glc6S
# Method in brief: as §1
# [33] = target: Fuc(a1-3)[Gal(b1-4)]GlcNAc
# Method in brief: as §1
# [34] = target: Fuc(a1-3)[Gal(b1-4)]GlcNAc(b1-2)Man
# Method in brief: as §1
# [35] = target: Fuc(a1-3)[Gal(b1-4)]GlcNAc(b1-2)Man(a1-3)[Fuc(a1-3)[Gal(b1-4)]GlcNAc(b1-2)Man(a1-6)]Man(b1-4)GlcNAc(b1-4)GlcNAc
# Method in brief: as §1
# [36] = target: Fuc(a1-3)[Gal(b1-4)]GlcNAc(b1-2)Man(a1-3)[Fuc(a1-3)[Gal(b1-4)]GlcNAc(b1-2)Man(a1-6)]Man(b1-4)GlcNAc(b1-4)[Fuc(a1-6)]GlcNAc
# Method in brief: as §1
# [37] = target: Fuc(a1-3)[Gal(b1-4)]GlcNAc(b1-3)Gal(b1-3)[Fuc(a1-4)]GlcNAc
# Method in brief: as §1
# [38] = target: Fuc(a1-3)[Gal(b1-4)]GlcNAc(b1-3)Gal(b1-4)[Fuc(a1-3)]GlcNAc
# Method in brief: as §1
# [39] = target: Fuc(a1-3)[Gal(b1-4)]GlcNAc(b1-3)Gal(b1-4)[Fuc(a1-3)]GlcNAc(b1-3)Gal(b1-4)[Fuc(a1-3)]GlcNAc
# Method in brief: as §1
# [40] = target: Fuc(a1-3)[Gal(b1-4)]GlcNAc(b1-3)GalNAc
# Method in brief: as §1
# [41] = target: Fuc(a1-3)[Gal(b1-4)]GlcNAc(b1-6)GalNAc
# Method in brief: as §1
# [42] = target: Fuc(a1-3)[Gal(b1-4)]GlcNAc(b1-6)[Gal(b1-3)GlcNAc(b1-3)]Gal(b1-4)Glc
# Method in brief: as §1
# [43] = target: Fuc(a1-3)[Gal(b1-4)]GlcNAc6S
# Method in brief: as §1
# [44] = target: Fuc(a1-3)[Gal3S(b1-4)]Glc
# Method in brief: as §1
# [45] = target: Fuc(a1-3)[Gal3S(b1-4)]GlcNAc
# Method in brief: as §1
# [46] = target: Fuc(a1-3)[Gal3S(b1-4)]GlcNAc6S
# Method in brief: as §1
# [47] = target: Fuc(a1-3)[GalNAc(b1-4)]GlcNAc
# Method in brief: as §1
# [48] = target: Fuc(a1-3)[GalNAc(b1-4)]GlcNAc6S
# Method in brief: as §1
# Fuc(a1-4)GlcNAc = target: Fuc(a1-4)GlcNAc
# Method in brief: as §1
# Fuc(b1-3)GlcNAc = target: Fuc(b1-3)GlcNAc
# Method in brief: as §1
# Gal(a1-2)Gal = target: Gal(a1-2)Gal
# Method in brief: as §1
# Gal(a1-3)Gal = target: Gal(a1-3)Gal
# Method in brief: as §1
# Gal(a1-3)Gal(b1-3)GlcNAc = target: Gal(a1-3)Gal(b1-3)GlcNAc
# Method in brief: as §1
# [49] = target: Gal(a1-3)Gal(b1-3)GlcNAc(b1-2)Man
# Method in brief: as §1
# [50] = target: Gal(a1-3)Gal(b1-3)GlcNAc(b1-2)Man(a1-3)[Gal(a1-3)Gal(b1-3)GlcNAc(b1-2)Man(a1-6)]Man(b1-4)GlcNAc(b1-4)GlcNAc
# Method in brief: as §1
# [51] = target: Gal(a1-3)Gal(b1-3)GlcNAc(b1-3)GalNAc
# Method in brief: as §1
# [52] = target: Gal(a1-3)Gal(b1-3)GlcNAc(b1-6)GalNAc
# Method in brief: as §1
# [53] = target: Gal(a1-3)Gal(b1-3)[Fuc(a1-4)]GlcNAc(b1-2)Man(a1-3)[Gal(a1-3)Gal(b1-3)[Fuc(a1-4)]GlcNAc(b1-2)Man(a1-6)]Man(b1-4)GlcNAc(b1-4)GlcNAc
# Method in brief: as §1
# Gal(a1-3)Gal(b1-4)Glc = target: Gal(a1-3)Gal(b1-4)Glc
# Method in brief: as §1
binder,measurement,setting,value
"LysMD3 (Homo sapiens), Q7Z3D4 (protein) MAGRHQNRSFPLPGVQSSGQVHAFGNCSDSDILEEDAEVYELRSRGKEKVRRSTSRDRLDDIIVLTKDIQEGDTLNAIALQYCCTVADIKRVNNLISDQDFFALRSIKIPVKKFSSLTETLCPPKGRQTSRHSSVQYSSEQQEILPANDSLAYSDSAGSFLKEVDRDIEQIVKCTDNKRENLNEVVSALTAQQMRFEPDNKNTQRKDPYYGADWGIG",glycan array binding signal (z-score),[1],-0.935
same,glycan array binding signal (z-score),[2],0.656
same,glycan array binding signal (z-score),[3],-1.51
same,glycan array binding signal (z-score),[4],1.06
same,glycan array binding signal (z-score),[5],-1.15
same,glycan array binding signal (z-score),[6],-0.197
same,glycan array binding signal (z-score),[7],1.03
same,glycan array binding signal (z-score),[8],0.057
same,glycan array binding signal (z-score),[9],2.84
same,glycan array binding signal (z-score),[10],0.956
same,glycan array binding signal (z-score),[11],-1.31
same,glycan array binding signal (z-score),[12],0.188
same,glycan array binding signal (z-score),[13],1.15
same,glycan array binding signal (z-score),[14],-1.02
same,glycan array binding signal (z-score),[15],-0.281
same,glycan array binding signal (z-score),[16],0.102
same,glycan array binding signal (z-score),[17],-0.837
same,glycan array binding signal (z-score),[18],0.81
same,glycan array binding signal (z-score),[19],0.896
same,glycan array binding signal (z-score),[20],0.406
same,glycan array binding signal (z-score),[21],-0.764
same,glycan array binding signal (z-score),[22],0.075
same,glycan array binding signal (z-score),[23],0.058
same,glycan array binding signal (z-score),[24],0.211
same,glycan array binding signal (z-score),[25],-0.457
same,glycan array binding signal (z-score),[26],0.331
same,glycan array binding signal (z-score),[27],-0.259
same,glycan array binding signal (z-score),[28],0.368
same,glycan array binding signal (z-score),[29],-0.994
same,glycan array binding signal (z-score),[30],1.49
same,glycan array binding signal (z-score),[31],1.47
same,glycan array binding signal (z-score),Fuc(a1-3)GlcNAc,1.14
same,glycan array binding signal (z-score),[32],-0.469
same,glycan array binding signal (z-score),[33],1.08
same,glycan array binding signal (z-score),[34],-0.772
same,glycan array binding signal (z-score),[35],0.287
same,glycan array binding signal (z-score),[36],0.362
same,glycan array binding signal (z-score),[37],-0.674
same,glycan array binding signal (z-score),[38],0.881
same,glycan array binding signal (z-score),[39],-0.28
same,glycan array binding signal (z-score),[40],-0.129
same,glycan array binding signal (z-score),[41],0.492
same,glycan array binding signal (z-score),[42],-0.11
same,glycan array binding signal (z-score),[43],-0.856
same,glycan array binding signal (z-score),[44],0.118
same,glycan array binding signal (z-score),[45],-0.081
same,glycan array binding signal (z-score),[46],0.211
same,glycan array binding signal (z-score),[47],0.633
same,glycan array binding signal (z-score),[48],-0.521
same,glycan array binding signal (z-score),Fuc(a1-4)GlcNAc,0.681
same,glycan array binding signal (z-score),Fuc(b1-3)GlcNAc,0.834
same,glycan array binding signal (z-score),Gal(a1-2)Gal,0.763
same,glycan array binding signal (z-score),Gal(a1-3)Gal,0.245
same,glycan array binding signal (z-score),Gal(a1-3)Gal(b1-3)GlcNAc,-0.104
same,glycan array binding signal (z-score),[49],-0.1
same,glycan array binding signal (z-score),[50],-0.227
same,glycan array binding signal (z-score),[51],0.235
same,glycan array binding signal (z-score),[52],-0.85
same,glycan array binding signal (z-score),[53],-0.72
same,glycan array binding signal (z-score),Gal(a1-3)Gal(b1-4)Glc,0.338

# Reprinted from the results shown (5 entries):
binder,measurement,setting,value
"LysMD3 (Homo sapiens), Q7Z3D4 (protein) MAGRHQNRSFPLPGVQSSGQVHAFGNCSDSDILEEDAEVYELRSRGKEKVRRSTSRDRLDDIIVLTKDIQEGDTLNAIALQYCCTVADIKRVNNLISDQDFFALRSIKIPVKKFSSLTETLCPPKGRQTSRHSSVQYSSEQQEILPANDSLAYSDSAGSFLKEVDRDIEQIVKCTDNKRENLNEVVSALTAQQMRFEPDNKNTQRKDPYYGADWGIG",glycan array binding signal (z-score),[27],-0.259
same,glycan array binding signal (z-score),[28],0.368
same,glycan array binding signal (z-score),[29],-0.994
same,glycan array binding signal (z-score),[30],1.49
same,glycan array binding signal (z-score),[31],1.47
